# Experimental data from publication PMC11879137.
# Amino acid sequences for entries named in this document (tags omitted). A change or cut given only in a name is not applied to a line headed by its entry.
# UniProt Q9UKI8: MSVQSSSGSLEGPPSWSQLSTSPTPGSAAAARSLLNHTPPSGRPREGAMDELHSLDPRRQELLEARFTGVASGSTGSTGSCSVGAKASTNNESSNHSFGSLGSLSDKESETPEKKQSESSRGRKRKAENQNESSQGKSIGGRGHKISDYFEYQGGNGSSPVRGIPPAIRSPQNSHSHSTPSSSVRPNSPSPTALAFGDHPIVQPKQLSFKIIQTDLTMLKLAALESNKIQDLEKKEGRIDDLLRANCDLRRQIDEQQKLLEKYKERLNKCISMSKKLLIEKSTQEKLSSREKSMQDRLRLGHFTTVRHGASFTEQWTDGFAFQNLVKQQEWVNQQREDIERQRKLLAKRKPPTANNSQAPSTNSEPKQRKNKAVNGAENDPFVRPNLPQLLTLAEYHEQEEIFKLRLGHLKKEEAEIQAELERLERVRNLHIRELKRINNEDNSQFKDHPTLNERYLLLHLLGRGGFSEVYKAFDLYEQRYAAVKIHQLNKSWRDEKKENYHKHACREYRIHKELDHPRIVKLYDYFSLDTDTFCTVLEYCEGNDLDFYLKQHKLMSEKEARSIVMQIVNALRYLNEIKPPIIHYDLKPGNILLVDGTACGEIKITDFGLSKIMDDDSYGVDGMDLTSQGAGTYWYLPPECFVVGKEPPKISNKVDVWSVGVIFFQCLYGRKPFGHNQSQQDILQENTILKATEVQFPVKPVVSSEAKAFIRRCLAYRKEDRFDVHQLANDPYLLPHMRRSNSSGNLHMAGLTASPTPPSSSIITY
# UniProt P12004: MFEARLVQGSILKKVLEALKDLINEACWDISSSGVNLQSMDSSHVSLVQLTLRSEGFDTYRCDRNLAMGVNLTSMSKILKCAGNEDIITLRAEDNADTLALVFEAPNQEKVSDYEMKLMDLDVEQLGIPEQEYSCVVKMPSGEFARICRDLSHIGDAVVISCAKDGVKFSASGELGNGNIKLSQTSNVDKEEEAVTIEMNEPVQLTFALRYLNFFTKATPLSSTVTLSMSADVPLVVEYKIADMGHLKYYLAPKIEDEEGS
# Results are given in words; binding and its absence hold for the method and conditions named. Binding seen in cells or lysates may run through a third protein. Some results given as binding are weak or reduced against the parent protein; the word gives no strength.
# How the values were obtained:
# [1] = target: SFB-TLK1 Y149A F150A D607A (human) (UniProt Q9UKI8); assay: pull-down; HEK293T transfected with SFB-tagged TLK1 or TLK2 constructs; streptavidin beads; PCNA detected by Western blot
# SFB-TLK1 D607A (human) = SFB-TLK1 D607A (human) (UniProt Q9UKI8); assay: as above
substance,measurement,setting,value
PCNA (from UniProt P12004 1-261),binding,[1],no binding
same,binding,SFB-TLK1 D607A (human),binds
